# Measurements from patent US9238796B2, “Cell growth-promoting peptide and use thereof” (TOAGOSEI CO., LTD., priority 2010, dated 2016).
# “Also recorded” adds a separate entry of the source. Some results were stated once for a whole list of compounds, not compound by compound.
# Tested on: Rat bone marrow-derived stem cells (mesenchymal stem cells)
# Assay: Evaluation of cell growth-promoting activity, WST-8 colorimetric method (Example 5)
# Type: cell-based
# Settings: Table 6 absorbance values; peptide approximately 2 μM vs bFGF 10 ng/mL
# Experimental: (§1) Experimental sections were set up that used the cell growth-promoting peptides obtained in Example 4 (samples 22 to 42) as a cell growth promoter and that used a commercially available bFGF as a cell growth promoter as a comparative example. For the control, a peptide-free section (the bFGF was also not added) was set up.
# (§2) The details of the evaluation testing are provided below. Each synthesized sample peptide was dissolved in PBS (phosphate-buffered physiological saline) to prepare a stock solution with a peptide concentration of 1 mM.
# (§3) Rat bone marrow-derived stem cells (mesenchymal stem cells) were used as the test cells. Specifically, the test stem cells were cultured by passage on Dulbecco's MEM medium (DMEM medium: Gibco product) containing 10% fetal bovine serum (FBS: Gibco product), 2 mM of L-glutamine, 50 unit/mL of penicillin, and 50 μg/mL of streptomycin. From the second passage to the fourth passage (passages 2 to 4) were used in this evaluation testing.
# (§4) Thus, the test stem cells were preliminarily recovered by treatment with a 0.05% trypsin-0.53 mM EDTA solution; a test stem cell solution, prepared with the DMEM medium containing 10 ng/mL of bFGF to provide 1×10^4 cells/mL, was seeded to each well of a 96-well plate to provide a cell count of 1×10^3 per well; and pre-cultivation was carried out overnight. The amount of medium was brought to 100 μL per well for this.
# (§5) The medium in each well was then exchanged for fresh medium to which a stock solution of a peptide selected from sample 22 to 42 had been added, so as to give a concentration of the peptide in each well of approximately 2 μM. For comparison, in some wells the medium in the well was exchanged for fresh medium to which a commercially available bFGF (product of PeproTech) had been added to give a concentration of 10 ng/mL (the bFGF experimental section in Table 6).
# (§6) After the addition of the sample peptide or bFGF as indicated above, the 96-well plate was placed in a CO2 incubator and cultivation at quiescence was carried out at 37° C. under 5% CO2. Medium exchange was performed every other day. The exchange medium was the same as that used at the start of cultivation (i.e., the same sample peptide or bFGF was also added to the exchange medium as in the sample peptide addition section or bFGF addition section).
# During this cultivation test, a “water-soluble tetrazolium salt (WST-8)” was added as a chromogenic reagent to some wells at the start of cultivation (day 0) and at four days after the start of cultivation (day 4). After incubation for 2 hours after the addition, the cell culture fluid to which the chromogenic reagent had been added was recovered. The extent of cell growth was evaluated by a colorimetric method in which, based on reduction of the tetrazolium salt, the absorbance (OD450) at a wavelength of 450 nm was measured.
row,Sequence,increase in cell growth performance compared to bFGF
1,LLLAAWTARAGKKRTLRKNDRKKR [compound 28],the same as for the cultivation section to which bFGF was added; also recorded: particularly significant cell growth-promoting activities
2,MLPGLALLLLAGKKRTLRKNDRKKR [compound 38],the same as for the cultivation section to which bFGF was added
3,LAAWTARAGKKRTLRKNDRKKR [compound 30],the same as for the cultivation section to which bFGF was added
4,MLPGLALLLLAAWGKKRTLRKNDRKKR [compound 36],the same as for the cultivation section to which bFGF was added
5,MLPGLALLLGKKRTLRKNDRKKR [compound 40],the same as for the cultivation section to which bFGF was added
6,MLPGLALLLLAAGKKRTLRKNDRKKR [sample 37],the same as for the cultivation section to which bFGF was added; also recorded: particularly significant cell growth-promoting activities
7,MLPGLALLLLGKKRTLRKNDRKKR [sample 39],the same as for the cultivation section to which bFGF was added; also recorded: particularly significant cell growth-promoting activities
8,LALLLLAAWTARAGKKRTLRKNDRKKR [compound 25],the same as for the cultivation section to which bFGF was added
9,MLPGLALLLLAAWTARAGKKRTLRKNDRKKR [sample 22],the same as for the cultivation section to which bFGF was added
10,ALLLLAAWTARAGKKRTLRKNDRKKR [compound 26],the same as for the cultivation section to which bFGF was added; also recorded: particularly significant cell growth-promoting activities
11,MLPGLALLGKKRTLRKNDRKKR [compound 41],the same as for the cultivation section to which bFGF was added
12,AAWTARAGKKRTLRKNDRKKR [compound 31],the same as for the cultivation section to which bFGF was added
13,PGLALLLLAAWTARAGKKRTLRKNDRKKR [compound 23],the same as for the cultivation section to which bFGF was added
14,LLLLAAWTARAGKKRTLRKNDRKKR [compound 27],the same as for the cultivation section to which bFGF was added; also recorded: particularly significant cell growth-promoting activities
15,WTARAGKKRTLRKNDRKKR [compound 33],the same as for the cultivation section to which bFGF was added
16,AWTARAGKKRTLRKNDRKKR [compound 32],the same as for the cultivation section to which bFGF was added
17,GLALLLLAAWTARAGKKRTLRKNDRKKR [compound 24],the same as for the cultivation section to which bFGF was added
18,MLPGLALLLLAAWTAGKKRTLRKNDRKKR [compound 34],the same as for the cultivation section to which bFGF was added
19,MLPGLALLLLAAWTGKKRTLRKNDRKKR [compound 35],the same as for the cultivation section to which bFGF was added
20,MLPGLALGKKRTLRKNDRKKR [compound 42],the same as for the cultivation section to which bFGF was added
21,LLAAWTARAGKKRTLRKNDRKKR [compound 29],the same as for the cultivation section to which bFGF was added

# Tested on: Rat bone marrow-derived stem cells (mesenchymal stem cells)
# Assay: Evaluation of cell growth-promoting activity, WST-8 colorimetric method (Example 2)
# Type: cell-based
# Settings: Table 3 absorbance values; peptide approximately 2 μM vs bFGF 10 ng/mL
# Experimental: as §1, with “1” for “4”, “1” for “22”, “21)” for “42)”
# as §2, §3, §4
# as §5, with “1” for “22”, “21” for “42”, “3).” for “6).”
# as §6
# During this cultivation test, a “water-soluble tetrazolium salt (WST-8)” was added as a chromogenic reagent to some wells at the start of cultivation (day 0), at two days after the start of cultivation (day 2), and at four days after the start of cultivation (day 4). After incubation for 2 hours after the addition, the cell culture fluid to which the chromogenic reagent had been added was recovered. The extent of cell growth was evaluated by a colorimetric method in which, based on reduction of the tetrazolium salt, the absorbance (OD450) at a wavelength of 450 nm was measured.
row,Sequence,increase in cell growth performance compared to bFGF
1,MLPSLALLLLAAWGKKRTLRKNDRKKR [compound 15],the same as for the cultivation section to which bFGF was added
2,MLPSLALLLLAGKKRTLRKNDRKKR [compound 17],the same as for the cultivation section to which bFGF was added
3,MLPSLALLGKKRTLRKNDRKKR [compound 20],the same as for the cultivation section to which bFGF was added
4,MLPSLALLLLAAWTVGKKRTLRKNDRKKR [compound 13],the same as for the cultivation section to which bFGF was added
5,PSLALLLLAAWTVRAGKKRTLRKNDRKKR [sample 2],the same as for the cultivation section to which bFGF was added
6,WTVRAGKKRTLRKNDRKKR [compound 12],the same as for the cultivation section to which bFGF was added
7,MLPSLALLLLAAWTGKKRTLRKNDRKKR [compound 14],the same as for the cultivation section to which bFGF was added
8,LLLAAWTVRAGKKRTLRKNDRKKR [compound 7],the same as for the cultivation section to which bFGF was added
9,MLPSLALLLLGKKRTLRKNDRKKR [compound 18],the same as for the cultivation section to which bFGF was added
10,ALLLLAAWTVRAGKKRTLRKNDRKKR [compound 5],the same as for the cultivation section to which bFGF was added
11,LAAWTVRAGKKRTLRKNDRKKR [compound 9],the same as for the cultivation section to which bFGF was added
12,AAWTVRAGKKRTLRKNDRKKR [compound 10],the same as for the cultivation section to which bFGF was added
13,LLLLAAWTVRAGKKRTLRKNDRKKR [compound 6],the same as for the cultivation section to which bFGF was added
14,MLPSLALLLLAAGKKRTLRKNDRKKR [compound 16],the same as for the cultivation section to which bFGF was added
15,SLALLLLAAWTVRAGKKRTLRKNDRKKR [sample 3],the same as for the cultivation section to which bFGF was added
16,MLPSLALGKKRTLRKNDRKKR [compound 21],the same as for the cultivation section to which bFGF was added
17,MLPSLALLLLAAWTVRAGKKRTLRKNDRKKR [sample 1],the same as for the cultivation section to which bFGF was added
18,AWTVRAGKKRTLRKNDRKKR [compound 11],the same as for the cultivation section to which bFGF was added
19,LALLLLAAWTVRAGKKRTLRKNDRKKR [compound 4],the same as for the cultivation section to which bFGF was added
20,MLPSLALLLGKKRTLRKNDRKKR [compound 19],the same as for the cultivation section to which bFGF was added
21,LLAAWTVRAGKKRTLRKNDRKKR [compound 8],the same as for the cultivation section to which bFGF was added
